Assay results published in PubChem BioAssay AID330 (DTP/NCI, 2004).
The list does not hold the whole screen: it is rich in T/C values a quarter to a half above the control, in often repeated tests (any T/C) and in doses without a T/C. Other doses and runs of a compound stand elsewhere. T/C gives the treated animals as a percentage of the vehicle group. Some entries give survivors of the animals treated and no T/C: the source holds a T/C of zero for them, seemingly a mark for toxic or unscored doses. Some doses without a T/C left all or most animals alive at the check, yet need not have been tolerated: the source hardly ever lists a survival T/C far under the control, and the zero likely stands for such cases as well. Survivors were counted at the toxicity check, usually on the fifth day, unless a day is given; later deaths do not show. Schedules are NCI's codes, taken here to give the interval after Q, in days (D) or hours (H), and the number of doses after X. For survival time, the PubChem record calls one and a half times the control and up active, and a quarter to a half above the control has no call in these data; cut-offs in other NCI protocols can differ. Some doses were run more than once; their values stand side by side, smallest first. Some T/C values carry the count of animals alive at the toxicity check (mostly the fifth day); where none is given, no animal had died by that day.

Tested on: P388 leukemia ip, CD2F1 mice, survival T/C
Assay: NCI In Vivo Anticancer Drug Screen. Data for tumor model P388 Leukemia (intraperitoneal) in CD2F1 (CDF1) mice
Settings: T/C endpoint: median survival time, higher T/C = longer survival
[1] = dose: 200.0 mg/kg/injection, schedule: Q01DX005 (ip), vehicle: saline with Tween-80
[2] = dose: 50.0 mg/kg/injection, schedule: Q01DX009 (ip), vehicle: Klucel (hydroxypropylcellulose) (HPC)
[3] = dose: 100.0 mg/kg/injection, schedule: Q01DX009 (ip), vehicle: saline with Tween-80
[4] = dose: 200.0 mg/kg/injection, schedule: Q01DX009 (ip), vehicle: saline with Tween-80

`CCCN1CCc2c([nH]c3cc(OC)ccc23)C1C` (stereo not given) was tested. Which survivor count [1] did it give?
The survivor count was 0 of 6.

With `CC1(C)NNC(=S)NC1=O` as the molecule, how does the survivor count (dose: 400.0 mg/kg/injection, schedule: Q01DX009 (ip), vehicle: Klucel (hydroxypropylcellulose) (HPC)) read?
Its survivor count is 6 of 6.

What does the source list for `CCCCCC/C=C/C1CC(=O)OC1=O` (stereo not given)?
survivor count (dose: 200.0 mg/kg/injection, schedule: Q04DX003 (ip), vehicle: saline with Tween-80): 3 of 6; survivor count (dose: 400.0 mg/kg/injection, schedule: Q04DX003 (ip), vehicle: saline with Tween-80): 0 of 6

How did the survivor count [1] turn out when `CN(CCc1ccccn1)c1ccc2c(c1)C(=O)c1ccccc1-2` was run?
Its survivor count is 0 of 5.

With `COc1cc(C2=[N+](C)CCc3cc4c(cc32)OCO4)cc(OC)c1OC` as the molecule, how does the survivor count (dose: 200.0 mg/kg/injection, schedule: Q01DX005 (ip), vehicle: Klucel (hydroxypropylcellulose) (HPC)) read?
Its survivor count is 0 of 6.

What does the source list for `C[n+]1c(-c2ccccc2)c2cc(N)ccc2c2ccc(N)cc21`?
T/C (dose: 6.25 mg/kg/injection, schedule: Q04DX003 (ip), vehicle: saline with Tween-80): 128 % of control; T/C (dose: 12.5 mg/kg/injection, schedule: Q04DX003 (ip), vehicle: saline with Tween-80): 130 and 137 % of control; T/C (dose: 25.0 mg/kg/injection, schedule: Q04DX003 (ip), vehicle: saline with Tween-80): 130 % of control; survivor count (dose: 50.0 mg/kg/injection, schedule: Q04DX003 (ip), vehicle: saline with Tween-80): 5 of 6

What does the source list for `CCC12C=CCN3CCC4(c5cc(C6c7[nH]c8ccccc8c7CCN7CCCCC67)c(OC)cc5N(C)C4C(O)(C(=O)OC)C1OC(C)=O)C32` (stereo not given)?
T/C (dose: 0.5 mg/kg/injection, schedule: Q01DX009 (ip), vehicle: Klucel (hydroxypropylcellulose) (HPC)): 138 % of control; T/C (dose: 2.0 mg/kg/injection, schedule: Q01DX009 (ip), vehicle: Klucel (hydroxypropylcellulose) (HPC)): 144 % of control [4 of 6 alive]

`CCOC(=O)CN1C(=S)CSC1=S` was tested. Which survivor count [2] did it give?
Its survivor count is 6 of 6.

For `C=C(C)[C@]12CC(C)C34OC(/C=C\C=C\CCCCCCCCC)(O[C@@H]1[C@@H]3[C@@H]1O[C@]1(CO)[C@@H](O)[C@]1(O)C(=O)C(C)=C[C@@H]41)O2` (stereo not given in full), which T/C (dose: 0.75 mg/kg/injection, schedule: Q01DX009 (ip), vehicle: alcohol) is on record?
Its T/C is 135 % of control.

And the survivor count (dose: 3.0 mg/kg/injection, schedule: Q01DX009 (ip), vehicle: alcohol)?
Its survivor count is 0 of 6.

Which T/C (dose: 6.25 mg/kg/injection, schedule: Q01DX009 (ip), vehicle: saline) does the source give for `NC(=S)N/N=C\c1nccc2c(N)cccc12` here?
The T/C was 144 % of control.

And the T/C (dose: 9.4 mg/kg/injection, schedule: Q04DX003 (ip), vehicle: saline)?
The T/C was 136 % of control.

What about the T/C (dose: 25.0 mg/kg/injection, schedule: Q01DX009 (ip), vehicle: saline with Tween-80) of the same molecule?
Its T/C is 136 and 141 % of control.

And the T/C (dose: 25.0 mg/kg/injection, schedule: Q01DX009 (ip), vehicle: saline)?
The T/C was 135 % of control.

What about the T/C (dose: 37.5 mg/kg/injection, schedule: Q04DX003 (ip), vehicle: saline) of the same molecule?
Its T/C is 146 % of control.

And the T/C (dose: 75.0 mg/kg/injection, schedule: Q01DX009 (ip), vehicle: saline with Tween-80)?
The T/C was 130 % of control.

What about the survivor count (dose: 75.0 mg/kg/injection, schedule: Q01DX009 (ip), vehicle: saline) of the same molecule?
The survivor count was 5 of 6.

What about the survivor count [3] of the same molecule?
The survivor count was 9 of 10.

And the survivor count (dose: 150.0 mg/kg/injection, schedule: Q01DX009 (ip), vehicle: saline with Tween-80)?
The survivor count was 8 of 10.

What about the survivor count [4] of the same molecule?
Its survivor count is 7 of 10.

What does the source list for `N#CC(Br)(Br)C(=O)c1nc(N)nc(N)n1`?
survivor count (dose: 50.0 mg/kg/injection, schedule: Q01DX005 (ip), vehicle: saline with Tween-80): 0 of 6; survivor count (dose: 100.0 mg/kg/injection, schedule: Q01DX005 (ip), vehicle: saline with Tween-80): 0 of 6; survivor count [1]: 0 of 6

For `CCOC(=O)C#Cc1cccc(C#CC(=O)OCC)c1`, which survivor count (dose: 200.0 mg/kg/injection, schedule: Q01DX001 (ip), vehicle: saline with Tween-80) is on record?
Its survivor count is 3 of 6.

And the survivor count (dose: 400.0 mg/kg/injection, schedule: Q01DX001 (ip), vehicle: saline with Tween-80)?
Its survivor count is 1 of 6.

How did the T/C (dose: 6.25 mg/kg/injection, schedule: Q01DX009 (ip), vehicle: Klucel (hydroxypropylcellulose) (HPC)) turn out when `COc1cc(C2OC(=O)c3ccccc3S2)ccc1O` (stereo not given) was run?
The T/C was 133 % of control.

What about the T/C (dose: 25.0 mg/kg/injection, schedule: Q01DX009 (ip), vehicle: Klucel (hydroxypropylcellulose) (HPC)) of the same molecule?
Its T/C is 128 % of control.

And the survivor count [2]?
The survivor count was 6 of 6.

What about the survivor count (dose: 200.0 mg/kg/injection, schedule: Q01DX009 (ip), vehicle: Klucel (hydroxypropylcellulose) (HPC)) of the same molecule?
The survivor count was 1 of 6.

Which survivor count (dose: 120.0 mg/kg/injection, schedule: Q01DX005 (ip), vehicle: saline) does the source give for `CN(C)CCNC(=Cc1ccc2ccccc2[n+]1C)NCCN(C)C` here?
The survivor count was 4 of 6.

What does the source list for `COC(=O)C(N)CCCCNc1ccc2c(cc1=O)C(NC(C)=O)CCc1cc(OC)c(OC)c(OC)c1-2` (stereo not given)?
T/C (dose: 50.0 mg/kg/injection, schedule: Q01DX009 (ip), vehicle: saline with Tween-80): 128 % of control; T/C [3]: 130 % of control; T/C (dose: 120.0 mg/kg/injection, schedule: Q01DX009 (ip), vehicle: saline): 130 % of control; T/C (dose: 180.0 mg/kg/injection, schedule: Q01DX009 (ip), vehicle: saline): 133 % of control; T/C [4]: 147 % of control [5 of 6 alive]; survivor count (dose: 400.0 mg/kg/injection, schedule: Q01DX009 (ip), vehicle: saline with Tween-80): 5 of 6

With `C=C1C(=O)OC2/C=C(\C)C(=O)CC3OC(C)(C)OC3(C)CC(OC(=O)/C(C)=C/C)C12` (stereo not given) as the molecule, how does the survivor count (dose: 80.0 mg/kg/injection, schedule: Q01DX009 (ip), vehicle: saline with Tween-80) read?
Its survivor count is 6 of 6.

Which survivor count (dose: 50.0 mg/kg/injection, schedule: Q01DX009 (ip), vehicle: saline) does the source give for `Clc1ccc(SSN2CCOCC2)cc1` here?
Its survivor count is 0 of 6.

What about the survivor count (dose: 100.0 mg/kg/injection, schedule: Q01DX009 (ip), vehicle: saline) of the same molecule?
Its survivor count is 0 of 6.

And the survivor count (dose: 200.0 mg/kg/injection, schedule: Q01DX009 (ip), vehicle: saline)?
The survivor count was 0 of 6.
